# Primary screen of a compound library

The chains behind the UniProt entries cited, without tags or fusion partners.
UniProt E9BF75, entry or part of it: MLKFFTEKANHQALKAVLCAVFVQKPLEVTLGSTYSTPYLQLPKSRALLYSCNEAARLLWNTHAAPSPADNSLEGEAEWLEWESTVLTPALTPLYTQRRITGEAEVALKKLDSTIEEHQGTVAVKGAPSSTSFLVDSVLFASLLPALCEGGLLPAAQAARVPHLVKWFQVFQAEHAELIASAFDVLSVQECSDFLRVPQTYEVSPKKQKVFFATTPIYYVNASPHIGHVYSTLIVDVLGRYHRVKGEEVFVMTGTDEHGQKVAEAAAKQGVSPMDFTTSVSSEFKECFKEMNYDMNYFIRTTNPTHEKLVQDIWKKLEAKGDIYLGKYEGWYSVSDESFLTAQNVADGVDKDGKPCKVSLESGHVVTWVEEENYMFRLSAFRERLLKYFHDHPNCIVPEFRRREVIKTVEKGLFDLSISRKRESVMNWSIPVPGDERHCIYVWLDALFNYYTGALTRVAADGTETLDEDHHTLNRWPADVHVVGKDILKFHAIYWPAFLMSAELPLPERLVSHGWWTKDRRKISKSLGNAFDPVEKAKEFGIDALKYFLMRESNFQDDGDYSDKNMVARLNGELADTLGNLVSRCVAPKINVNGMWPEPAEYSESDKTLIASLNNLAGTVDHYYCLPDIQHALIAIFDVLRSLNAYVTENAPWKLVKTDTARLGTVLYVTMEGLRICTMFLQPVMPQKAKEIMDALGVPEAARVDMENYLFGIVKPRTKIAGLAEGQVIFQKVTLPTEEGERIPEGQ

From ChEMBL document CHEMBL3988442, “University of Dundee, Small-Polar-MMV Screening Library” (2021).

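Methionyl-tRNA synthetase (putative), Leishmania donovani (UniProt E9BF75). Primary screen of methionyl-tRNA synthetase; the read-out is not stated. The test concentration is not given. The values are filed as inhibition. Size under these conditions: about 68,000 compounds, about 24 of them at 50% or above in at least one test.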

Results are percentages, as filed.
The record does not define 0% and 100%; most values in the screen are far below 50% and negative numbers occur (in some assays of this library far below -100).
This is an unselected part of the compounds tested.

| Compound | Inhibition |
|---|---|
| `Clc1ccc(CN2CCCC2Cn2cncn2)c2ncccc12` (stereo not drawn) | 13.02% |
| `CN(C)C(=O)CCC1CCCN(Cc2cccc(-c3ccccn3)c2)C1` (stereo not drawn) | 2.857% |
| `Cc1cccnc1NC(=O)c1ccc(-n2cncn2)nn1` | 2.158% |
| `CC(C)CCC(=O)N1CCN(C(=O)c2ccc3nccn3c2)CC1` | 10.2% |
| `CCc1c(C)nc2cc(C3CCN(Cc4ccncc4C)C3)nn2c1O` (stereo not drawn) | 9.896% |
| `CCCC(C#N)NC(=O)Cc1csc(CC)n1` (stereo not drawn) | 14.14% |
| `COc1c(CNC2CCCOc3ccccc32)c(C)nn1C` (stereo not drawn) | 13.01% |
| `COc1cc2c(cc1-c1nc3c(cnn3C(C)C)[nH]1)OCO2` | 15.78% |
| `Cc1c(C(=O)NC(CN2CCCC2=O)c2ccccc2)cnn1C` (stereo not drawn) | 15.31% |
| `COc1ccc(C(C(=O)O)N(C)CCN2CCCC2)c(C)c1` (stereo not drawn) | 3.846% |
| `CSCCC1c2nc[nH]c2CCN1Cc1cncn1C` (stereo not drawn) | 6.452% |
| `Cn1cnnc1C1CCCN(Cc2nc(Cc3ccccc3)no2)C1` (stereo not drawn) | 8.672% |
| `CCNS(=O)(=O)c1cnccc1N1CCN(CCO)CC1` | 7.735% |
| `Cc1nc(Nc2nccs2)cc(C2CCCN2)n1` (stereo not drawn) | 10.25% |
| `CN1CCc2c(C#N)c(NCCCO)n3cnnc3c2C1` | 7.58% |
| `CCN(CC)S(=O)(=O)N1CC[C@H](c2ccccc2)[C@H]2NCCCC[C@H]21` | 15.43% |
| `CCN(CC)C(=O)C1CCCN(CC(=O)Nc2c(C)nn(CC)c2C)C1` (stereo not drawn) | 6.625% |
| `O=C(C1CCS(=O)(=O)CC1)N1CCC(Cc2ccc(F)cc2)CC1` | 0.7371% |
| `O=C(NCc1ccco1)[C@@]12CCO[C@@H]1CCN(CC1CCOCC1)C2` | 20.74% |
| `Cc1nc(CN2CCCC23CCN(c2nc4ccccc4s2)CC3)co1` | 14.03% |
| `CC(C)n1c2ccccc2c2c1cc(C(=O)NCCO)n2C(=O)N(C)C` | 18.09% |
| `O=C(NCCN1CCCC(CO)C1)c1ccc2sccc2c1` (stereo not drawn) | 15.73% |
| `COc1ccc(CN2C[C@@H](CN(C)CCO)[C@@H](CO)C2)cc1Cl` | 16.43% |
| `CC1CCc2nc(O)c(C(=O)NCCCN3CCN(C)CC3)cc2C1` (stereo not drawn) | -3.377% |
| `COCC(=O)N1CCCC1c1nccnc1Nc1nc(C)cs1` (stereo not drawn) | 14.35% |
| `CCc1[nH]c2c(CNC(=O)[C@@H]3CCCN3C)cc(C)cc2c1C` | 5.025% |
| `Cc1cc(CN2CCC(N(C)Cc3nnc(C4CC4)n3C)C2)on1` (stereo not drawn) | 18.89% |
| `CN(C)c1cc(CNC(=O)Nc2cccnc2N2CCCC2)ccn1` | 22.39% |
| `CCNC(=O)Nc1c(C)cnn1Cc1cc(F)ccc1F` | 18.18% |
| `COc1cccc2c1OCC(C(=O)NCCn1nc(C)c(Cl)c1C)C2` (stereo not drawn) | 17.58% |
| `Nc1ncc(C(=O)N2CCC(O)(CO)CC2)c(-c2ccccc2)n1` | 9.589% |
| `COc1ccc(CC(=O)NCC(O)c2sccc2C)cc1OC` (stereo not drawn) | 12.54% |
| `CCc1ncc2c(n1)CN(Cc1cn3ccsc3n1)CC2` | 9.938% |
| `Cc1nc(CN2C[C@H]3C[C@H](C(=O)NCC4CC4)N(C)[C@H]3C2)cs1` | -0.3205% |
| `CCc1ccc(NC(=O)N2Cc3c(CN(C)C)nn(C)c3C2)cc1` | 13.59% |
| `CCCN1CCCC2(CCN(Cc3noc(C4CCCC4)n3)C2)C1=O` (stereo not drawn) | 6.704% |
| `Cc1n[nH]c(C)c1CC(=O)N1CCN(C)C2(CCNC(=O)CC2)C1` (stereo not drawn) | 10.07% |
| `CNC(=O)C1(CCCc2ccncc2)CCCN1` (stereo not drawn) | 13.36% |
| `CC(Cn1ccnc1)NC(=O)NCCc1cccnc1` (stereo not drawn) | 20.53% |
| `Cc1ccc(S(=O)(=O)c2ncccc2CN2CCCCC2)cc1` | 13.03% |
| `COc1ncccc1CNC(=O)NCc1ccco1` | 25.72% |
| `CC(NC(=O)C(C)(C)C#N)c1ccc(OCC2CC2)c(F)c1` (stereo not drawn) | 12.53% |
| `NC(=O)C1(CNC(=O)CCc2ccc(Cl)s2)CCOCC1` | 4.57% |
| `CC(C)N1CCC(CC(=O)N(C)CC(=O)c2ccc(O)cc2)CC1` | 18.56% |
| `N#Cc1ccc(OC2CCN(C(=O)c3ccc(Br)o3)CC2)nc1` | -5.245% |
| `CN(C(=O)C1CCCCC1)[C@@H]1CCC[C@@H](N2CCOCC2)[C@@H]1O` | 5.822% |
| `O=C(CC1CCCCC1)NC1CCCCNC1=O` (stereo not drawn) | 21.02% |
| `COc1ccc(Cl)cc1CS(=O)(=O)CC(=O)N(C)Cc1ccccc1F` | 8.591% |
| `O=C(c1scc2c1OCCO2)N1CCN(Cc2cccc(F)c2)CC1` | 6.863% |
| `CCN(Cc1ccc(C#N)cc1F)C(=O)C(C)(C)C` | 9.041% |
| `CN(C)CCN1CCN(C)C2(CCN(c3nccs3)CC2)C1=O` | 9.058% |
| `Cn1cccc1C(=O)NCc1cnc2n1CCN(C(=O)N1CCCC1)C2` | 17.15% |
| `COC[C@]1(O)CCN(C(=O)c2cccc(CN(C)C)c2)CC1(C)C` | 0.2688% |
| `CC(c1ccc(-n2cncn2)cc1)N(C)Cc1ccccn1` (stereo not drawn) | 15.22% |
| `Cc1ccccc1CN(Cc1ccncc1)CC(C)C` | 8.505% |
| `CCc1nc(C2CCCN2Cc2cc(C)nc3ccccc23)no1` (stereo not drawn) | 21.9% |
| `Cc1cnn(CCNCc2nccn2Cc2ccccc2)c1` | 10.51% |
| `Cn1cc(C(O)CNC(=O)c2cc(Br)ccc2Cl)cn1` (stereo not drawn) | 10.57% |
| `CCc1nc(CC2CN(c3ncnc4sc(C)c(C)c34)CCO2)no1` (stereo not drawn) | 12.54% |
| `Cn1nc(C(=O)NC2CC(C)(C)NC(C)(C)C2)cc1NC(=O)C1CC1` | 15.79% |
| `CC1(C)CC(N(Cc2ccncc2)Cc2cccnc2)CC(C)(C)N1` | 12% |
| `CCc1noc(C(C)N2CCC(NS(=O)(=O)c3cccs3)CC2)n1` (stereo not drawn) | 7.258% |
| `CS(=O)(=O)c1ccc2c(c1)nc1n2[C@@H](CNCc2cccnc2)COC1` | 3.846% |
| `COc1ccccc1CC1CCCN(CC(=O)N2CCOCC2)C1` (stereo not drawn) | 10.42% |
| `COCc1cnc2n1CCN(Cc1cccnc1)C2C` (stereo not drawn) | 9.623% |
| `CCCN(C)C(=O)c1cc(S(=O)(=O)NCC)ccc1C` | 10.87% |
| `Cc1cc(C)n(NC(=O)c2cccc3c2OCC3)c(=O)c1` | 2.793% |
| `CNC(=O)CCN(C)CC1(c2ccc(Br)cc2)CC1` | 13.26% |
| `Cn1cc(CCCNC(=O)NC2CCN(c3ccccc3)C2=O)cn1` (stereo not drawn) | 15.62% |
| `Cc1nc2cc(-c3nccn3C)nn2c(N2CCCC2)c1C` | 11.63% |
| `Cc1cc(=O)n2nc(Oc3ccc(F)c(F)c3)sc2n1` | 2.477% |
| `N#Cc1ccc(N2CCCC3(CCN(c4cncnc4)C3=O)C2)nc1` (stereo not drawn) | 8.798% |
| `O=C(O)c1cccc(N2C[C@H](NC(=O)C3CCOCC3)[C@@H](C3CC3)C2)n1` | -4.467% |
| `CC(C)(C)c1cc(NC(=O)CN2CCCCC2Cn2cncn2)on1` (stereo not drawn) | 11.7% |
| `Cc1cc(-c2ccccc2C(=O)O)nc(C2CCCN2S(C)(=O)=O)n1` (stereo not drawn) | 11.02% |
| `Cc1cnn(CCNCC(O)COc2cccc(C(F)(F)F)c2)c1` (stereo not drawn) | 10.14% |
| `COc1ncccc1NC(=O)NCC1CCS(=O)(=O)C1` (stereo not drawn) | 10.93% |
| `Cc1ncncc1C(=O)Nc1cnn(CC(=O)NC2CCCC2)c1` | 16.43% |
| `CCc1cccc(NC(=O)N2CCn3cnc(COC)c3C2)c1` | -5.96% |
| `CC(C)C1CN(Cc2c[nH]cn2)CCCN1CC1CC1` (stereo not drawn) | 11.85% |
| `O=C(c1ccoc1)N1CCC(NCc2ccccc2Cl)CC1` | 8.101% |
| `COc1ccc(C#N)cc1CSCCN1CCOCC1` | 10.26% |

The first 10 entries again:

Result for Clc1ccc(CN2CCCC2Cn2cncn2)c2ncccc12 (stereo not drawn) was 13.02%.
Result for CN(C)C(=O)CCC1CCCN(Cc2cccc(-c3ccccn3)c2)C1 (stereo not drawn) was 2.857%.
Result for Cc1cccnc1NC(=O)c1ccc(-n2cncn2)nn1 was 2.158%.
Result for CC(C)CCC(=O)N1CCN(C(=O)c2ccc3nccn3c2)CC1 was 10.2%.
Result for CCc1c(C)nc2cc(C3CCN(Cc4ccncc4C)C3)nn2c1O (stereo not drawn) was 9.896%.
Result for CCCC(C#N)NC(=O)Cc1csc(CC)n1 (stereo not drawn) was 14.14%.
Result for COc1c(CNC2CCCOc3ccccc32)c(C)nn1C (stereo not drawn) was 13.01%.
Result for COc1cc2c(cc1-c1nc3c(cnn3C(C)C)[nH]1)OCO2 was 15.78%.
Result for Cc1c(C(=O)NC(CN2CCCC2=O)c2ccccc2)cnn1C (stereo not drawn) was 15.31%.
Result for COc1ccc(C(C(=O)O)N(C)CCN2CCCC2)c(C)c1 (stereo not drawn) was 3.846%.